Laboratory results taken from US20130217685, “COMPOUNDS FOR MODULATING RNA BINDING PROTEINS AND USES THEREFOR” (UNIVERSITY OF MASSACHUSETTS, published 2013).

What was measured:
[1] = test system: POS-1 (80-180) (Caenorhabditis elegans); assay: FP; details: same conditions as MEX-5 screen, Zn(OAc)2; compound inhibition screen; purified recombinant protein; label: 3'-fluorescein
[2] = test system: MEX-3 (45-205) (Caenorhabditis elegans); assay: FP; details: 80 nM protein, 2 nM RNA, no zinc; compound inhibition screen; purified recombinant protein; label: 3'-fluorescein

Row | Sequence | binding result [1] | binding result [2]
1 | AACUAUUAUUAUUUGUUAUUCAUAUUUU [BMF018] | binds | 
2 | CGAGCAGGAAGUGUGCAGAGUUUAGGACGU [SEQ 14] |  | binds

Construct, isoform or probe ends are uncertain for at least one entry.
